Source: US11969423B2, “Compounds” (GLAXOSMITHKLINE INTELLECTUAL PROPERTY DEVELOPMENT LIMITED, priority 2017, dated 2024)
Like-named read-outs stand apart in the source and are kept apart here. For some of these results: At least one structure is not confirmed: it was looked up by name or label, or the drawing left a doubt. Some entries share one result that the patent states for a list of compounds.

Key:
[1] = test system: M. tuberculosis W4-E1-GFP (Mutant); type: cell-based, Mycobacterium tuberculosis
[2] = test system: M. tuberculosis H37Rv-GFP; type: cell-based, Mycobacterium tuberculosis; conditions: read-out: average EC50_H37Rv

SMILES | EC50 ([1]; read-out: average EC50_Mutant) [µM] | EC50 [2] [µM] | EC50 ([1]; read-out: EC50_Mutant) [µM]
O=C(CCC(F)(F)F)N1CCC(F)(c2cccnc2)CC1 [Example 2, 4,4,4-trifluoro-1-[4-fluoro-4-(3-pyridyl)-1-piperidyl]butan-1-one] | < 1.3 | – | –
O=C(CCC(F)(F)F)N1CCC(c2cncc(F)c2)CC1 [Example 3, 4,4,4-trifluoro-1-[4-(5-fluoro-3-pyridyl)-1-piperidyl]butan-1-one] | < 1.3 | – | –
O=C(CCC(F)(F)F)N1CCC(c2ccc(F)nc2)CC1 [Example 4, 4,4,4-trifluoro-1-[4-(6-fluoro-3-pyridyl)-1-piperidyl]butan-1-one] | < 1.3 | – | –
O=C(CCC(F)(F)F)N1CCC(c2cc(C(F)(F)F)ccn2)CC1 [Example 6, 4,4,4-trifluoro-1-[4-[4-(trifluoromethyl)-2-pyridyl]-1-piperidyl]butan-1-one] | < 1.3 | – | –
O=C(CCC(F)(F)F)N1CCC(c2cncc(C(F)(F)F)c2)CC1 [Example 7, 4,4,4-trifluoro-1-[4-[5-(trifluoromethyl)-3-pyridyl]-1-piperidyl]butan-1-one] | < 1.3 | < 0.15 | –
O=C(CCC(F)(F)F)N1CCC(c2cccc(C(F)(F)F)n2)CC1 [Example 8, 4,4,4-trifluoro-1-[4-[6-(trifluoromethyl)-2-pyridyl]-1-piperidyl]butan-1-one] | < 1.3 | – | –
O=C(CCC(F)(F)F)N1CCC(c2cccc(F)n2)CC1 [Example 9, 4,4,4-trifluoro-1-[4-(6-fluoro-2-pyridyl)-1-piperidyl]butan-1-one] | < 1.3 | – | –
COc1ccc(C2CCN(C(=O)CCC(F)(F)F)CC2)cn1 [Example 10, 4,4,4-trifluoro-1-[4-(6-methoxy-3-pyridyl)-1-piperidyl]butan-1-one] | < 1.3 | – | –
O=C(CCC(F)(F)F)N1CCC(c2ncc(F)cc2F)CC1 [Example 13, 1-[4-(3,5-difluoro-2-pyridyl)-1-piperidyl]-4,4,4-trifluoro-butan-1-one] | < 1.3 | – | 0.25 to 0.5
O=C(CCC(F)(F)F)N1CCC(c2ccc(F)nc2F)CC1 [Example 14, 1-[4-(2,6-difluoro-3-pyridyl)-1-piperidyl]-4,4,4-trifluoro-butan-1-one] | < 1.3 | < 0.15 | –
O=C(CCC(F)(F)F)N1CCC(c2ccc(F)cn2)CC1 [Example 17, 4,4,4-trifluoro-1-[4-(5-fluoro-2-pyridyl)-1-piperidyl]butan-1-one] | < 1.3 | – | –
Cc1cc(C2CCN(C(=O)CCC(F)(F)F)CC2)ccn1 [Example 22, 4,4,4-trifluoro-1-(4-(2-methylpyridin-4-yl)piperidin-1-yl)butan-1-one] | < 1.3 | < 0.15 | –
O=C(CCC(F)(F)F)N1CCC(c2cnc(F)c(F)c2)CC1 [Example 23, 1-(4-(5,6-difluoropyridin-3-yl)piperidin-1-yl)-4,4,4-trifluorobutan-1-one] | < 1.3 | – | –
O=C(CCC(F)(F)F)N1CCC(c2cncc(C(F)(F)F)n2)CC1 [Example 24, 4,4,4-trifluoro-1-(4-(6-(trifluoromethyl)pyrazin-2-yl)piperidin-1-yl)butan-1-one] | < 1.3 | – | –
O=C(CCC(F)(F)F)N1CCC(c2ccnc(Cl)c2)CC1 [Example 25, 1-(4-(2-chloropyridin-4-yl)piperidin-1-yl)-4,4,4-trifluorobutan-1-one] | < 1.3 | < 0.15 | –
O=C(CCC(F)(F)F)N1CCC(c2ccncc2F)CC1 [Example 26, 4,4,4-trifluoro-1-(4-(3-fluoropyridin-4-yl)piperidin-1-yl)butan-1-one] | < 1.3 | – | –
O=C(CCC(F)(F)F)N1CCC(c2cccc(Cl)n2)CC1 [Example 27, 1-(4-(6-chloropyridin-2-yl)piperidin-1-yl)-4,4,4-trifluorobutan-1-one] | < 1.3 | – | –
O=C(CCCC(F)(F)F)N1CCC(c2cncc(Cl)c2)CC1 [Example 31, 1-(4-(5-chloropyridin-3-yl)piperidin-1-yl)-5,5,5-trifluoropentan-1-one] | < 1.3 | – | –
O=C(CCC(F)(F)F)N1CCC(F)(c2ccccn2)CC1 [Example 33, 4,4,4-trifluoro-1-(4-fluoro-4-(pyridin-2-yl)piperidin-1-yl)butan-1-one] | < 1.3 | – | –
O=C(CCC(F)(F)F)N1CCC(F)(c2cncc(C(F)(F)F)c2)CC1 [Example 34, 4,4,4-trifluoro-1-(4-fluoro-4-(5-(trifluoromethyl)pyridin-3-yl)piperidin-1-yl)butan-1-one] | < 1.3 | – | –
O=C(CCC(F)(F)F)N1CCC(F)(c2cc(C(F)(F)F)ccn2)CC1 [Example 39, 4,4,4-trifluoro-1-[4-fluoro-4-[4-(trifluoromethyl)-2-pyridyl]-1-piperidyl]butan-1-one] | < 1.3 | < 0.15 | –
O=C(CCC(F)(F)F)N1CCC(F)(c2ccc(F)nc2)CC1 [Example 40] | < 1.3 | < 0.15 | –
O=C(CCC(F)(F)F)N1CCC(F)(c2ccnc(Cl)c2)CC1 [Example 41] | < 1.3 | < 0.15 | –
